Results from ChEMBL document CHEMBL5444388, “Affinity Phenotypic Cellular Literature for EUbOPEN Chemogenomic Library” (2024).
Further values from the same series stand in other lists.

The chains behind the UniProt entries cited, without tags or fusion partners. Where a name states a change or a piece, a line headed by the entry shows the natural chain unless it says otherwise.
UniProt Q02224: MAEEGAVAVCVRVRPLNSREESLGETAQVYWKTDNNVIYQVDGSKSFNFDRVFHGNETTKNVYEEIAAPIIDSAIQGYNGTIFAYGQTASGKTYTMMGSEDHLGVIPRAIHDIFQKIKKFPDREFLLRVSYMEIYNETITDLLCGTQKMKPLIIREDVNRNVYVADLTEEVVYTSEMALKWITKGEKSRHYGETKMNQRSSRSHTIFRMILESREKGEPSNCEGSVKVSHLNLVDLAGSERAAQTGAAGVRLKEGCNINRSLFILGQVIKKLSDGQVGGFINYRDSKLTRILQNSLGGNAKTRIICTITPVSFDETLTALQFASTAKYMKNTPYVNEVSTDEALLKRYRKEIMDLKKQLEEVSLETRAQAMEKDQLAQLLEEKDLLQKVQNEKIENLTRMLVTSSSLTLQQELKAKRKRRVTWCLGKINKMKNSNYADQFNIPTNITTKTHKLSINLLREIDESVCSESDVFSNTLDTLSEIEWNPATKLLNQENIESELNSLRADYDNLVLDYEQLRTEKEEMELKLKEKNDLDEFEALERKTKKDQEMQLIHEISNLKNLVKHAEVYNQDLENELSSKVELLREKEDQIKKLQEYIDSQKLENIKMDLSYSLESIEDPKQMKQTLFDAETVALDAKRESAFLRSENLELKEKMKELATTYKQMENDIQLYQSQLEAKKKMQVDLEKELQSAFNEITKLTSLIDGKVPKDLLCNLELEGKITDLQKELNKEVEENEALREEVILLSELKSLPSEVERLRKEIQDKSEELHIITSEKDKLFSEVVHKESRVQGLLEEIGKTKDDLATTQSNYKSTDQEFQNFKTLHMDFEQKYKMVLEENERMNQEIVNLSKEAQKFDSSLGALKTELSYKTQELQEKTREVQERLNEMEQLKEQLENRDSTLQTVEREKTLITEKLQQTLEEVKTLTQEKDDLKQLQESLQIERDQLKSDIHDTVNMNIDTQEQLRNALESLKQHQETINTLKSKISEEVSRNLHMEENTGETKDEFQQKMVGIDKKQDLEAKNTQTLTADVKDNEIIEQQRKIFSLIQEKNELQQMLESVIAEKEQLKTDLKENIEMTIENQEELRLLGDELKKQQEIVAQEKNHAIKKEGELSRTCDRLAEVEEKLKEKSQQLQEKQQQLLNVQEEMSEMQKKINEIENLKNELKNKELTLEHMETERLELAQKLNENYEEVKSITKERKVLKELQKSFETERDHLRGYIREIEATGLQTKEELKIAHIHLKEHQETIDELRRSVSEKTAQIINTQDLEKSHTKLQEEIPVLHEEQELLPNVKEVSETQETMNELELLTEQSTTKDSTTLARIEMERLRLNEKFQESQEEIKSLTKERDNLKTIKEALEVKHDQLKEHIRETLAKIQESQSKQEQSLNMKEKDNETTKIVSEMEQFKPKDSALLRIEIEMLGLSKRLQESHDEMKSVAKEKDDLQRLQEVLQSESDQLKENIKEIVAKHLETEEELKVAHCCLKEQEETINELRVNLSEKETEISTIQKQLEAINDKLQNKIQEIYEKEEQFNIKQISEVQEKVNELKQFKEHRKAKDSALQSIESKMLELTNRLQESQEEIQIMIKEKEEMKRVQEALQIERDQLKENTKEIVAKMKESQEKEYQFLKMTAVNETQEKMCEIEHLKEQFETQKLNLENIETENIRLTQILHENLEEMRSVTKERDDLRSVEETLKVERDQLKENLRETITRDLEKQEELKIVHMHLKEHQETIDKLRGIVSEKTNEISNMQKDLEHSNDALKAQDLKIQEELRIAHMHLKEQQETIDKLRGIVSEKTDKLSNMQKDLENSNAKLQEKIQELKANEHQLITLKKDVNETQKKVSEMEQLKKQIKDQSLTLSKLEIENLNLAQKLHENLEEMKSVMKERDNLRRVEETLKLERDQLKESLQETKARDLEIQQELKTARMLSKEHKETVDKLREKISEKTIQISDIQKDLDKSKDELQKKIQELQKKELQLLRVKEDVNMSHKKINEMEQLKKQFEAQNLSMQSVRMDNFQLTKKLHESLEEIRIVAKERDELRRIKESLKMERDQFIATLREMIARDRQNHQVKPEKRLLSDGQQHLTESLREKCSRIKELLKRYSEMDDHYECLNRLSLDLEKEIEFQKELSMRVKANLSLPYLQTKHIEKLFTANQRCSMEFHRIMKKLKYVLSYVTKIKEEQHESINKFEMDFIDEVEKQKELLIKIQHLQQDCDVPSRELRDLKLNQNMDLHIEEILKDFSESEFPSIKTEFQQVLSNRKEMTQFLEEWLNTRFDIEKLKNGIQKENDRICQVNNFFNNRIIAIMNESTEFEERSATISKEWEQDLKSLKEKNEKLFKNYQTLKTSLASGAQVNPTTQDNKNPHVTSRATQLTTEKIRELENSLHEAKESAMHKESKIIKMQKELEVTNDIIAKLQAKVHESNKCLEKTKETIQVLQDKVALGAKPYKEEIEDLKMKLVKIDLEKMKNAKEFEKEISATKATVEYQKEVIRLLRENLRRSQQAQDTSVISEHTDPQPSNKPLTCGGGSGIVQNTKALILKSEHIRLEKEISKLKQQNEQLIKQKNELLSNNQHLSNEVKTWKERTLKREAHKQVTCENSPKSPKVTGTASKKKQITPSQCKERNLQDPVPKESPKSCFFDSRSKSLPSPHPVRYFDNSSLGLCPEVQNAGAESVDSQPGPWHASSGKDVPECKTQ

Columns and labels:
Format in all cases: functional, cell-based
Set-up in all cases: recommended concentration 100 nM
[1] = molecular target: Centromere-associated protein E (Homo sapiens) (UniProt Q02224); assay: Affinity Phenotypic Cellular interaction: (Cell-growth inhibition assays (growth inhibitory effect colon cancer cell line SW1783)) EUB0000734a CENPE; details: Affinity Phenotypic Cellular Source Knowledge https://pubmed.ncbi.nlm.nih.gov/20167803/
[2] = molecular target: Centromere-associated protein E (Homo sapiens) (UniProt Q02224); assay: Affinity Phenotypic Cellular interaction: (Cell-growth inhibition assays (growth inhibitory effect colon cancer cell line SW-684)) EUB0000734a CENPE; details: SW684, Affinity Phenotypic Cellular Source Knowledge https://pubmed.ncbi.nlm.nih.gov/20167803/
[3] = molecular target: Centromere-associated protein E (Homo sapiens) (UniProt Q02224); assay: Affinity Phenotypic Cellular interaction: (Cell-growth inhibition assays (growth inhibitory effect colon cancer cell line NCI-H1299)) EUB0000734a CENPE; details: Affinity Phenotypic Cellular Source Knowledge https://pubmed.ncbi.nlm.nih.gov/20167803/
[4] = molecular target: Centromere-associated protein E (Homo sapiens) (UniProt Q02224); assay: Affinity Phenotypic Cellular interaction: (Cell-growth inhibition assays (growth inhibitory effect colon cancer cell line NCI-H2122)) EUB0000734a CENPE; details: Affinity Phenotypic Cellular Source Knowledge https://pubmed.ncbi.nlm.nih.gov/20167803/
[5] = molecular target: Centromere-associated protein E (Homo sapiens) (UniProt Q02224); assay: Affinity Phenotypic Cellular interaction: (Cell-growth inhibition assays (growth inhibitory effect colon cancer cell line SCaBER)) EUB0000734a CENPE; details: Affinity Phenotypic Cellular Source Knowledge https://pubmed.ncbi.nlm.nih.gov/20167803/
[6] = molecular target: Centromere-associated protein E (Homo sapiens) (UniProt Q02224); assay: Affinity Phenotypic Cellular interaction: (Cell-growth inhibition assays (growth inhibitory effect colon cancer cell line A-431)) EUB0000734a CENPE; details: Affinity Phenotypic Cellular Source Knowledge https://pubmed.ncbi.nlm.nih.gov/20167803/
[7] = molecular target: Centromere-associated protein E (Homo sapiens) (UniProt Q02224); assay: Affinity Phenotypic Cellular interaction: (Cell-growth inhibition assays (growth inhibitory effect colon cancer cell line NCI-H716)) EUB0000734a CENPE; details: Affinity Phenotypic Cellular Source Knowledge https://pubmed.ncbi.nlm.nih.gov/20167803/
[8] = molecular target: Centromere-associated protein E (Homo sapiens) (UniProt Q02224); assay: Affinity Phenotypic Cellular interaction: (Cell-growth inhibition assays (growth inhibitory effect colon cancer cell line BE2-C)) EUB0000734a CENPE; details: BE(2)-C, Affinity Phenotypic Cellular Source Knowledge https://pubmed.ncbi.nlm.nih.gov/20167803/
[9] = molecular target: Centromere-associated protein E (Homo sapiens) (UniProt Q02224); assay: Affinity Phenotypic Cellular interaction: (Cell-growth inhibition assays (growth inhibitory effect colon cancer cell line HepG2)) EUB0000734a CENPE; details: Affinity Phenotypic Cellular Source Knowledge https://pubmed.ncbi.nlm.nih.gov/20167803/
[10] = molecular target: Centromere-associated protein E (Homo sapiens) (UniProt Q02224); assay: Affinity Phenotypic Cellular interaction: (Cell-growth inhibition assays (growth inhibitory effect colon cancer cell line HMCB)) EUB0000734a CENPE; details: Affinity Phenotypic Cellular Source Knowledge https://pubmed.ncbi.nlm.nih.gov/20167803/
[11] = molecular target: Centromere-associated protein E (Homo sapiens) (UniProt Q02224); assay: Affinity Phenotypic Cellular interaction: (Cell-growth inhibition assays (growth inhibitory effect colon cancer cell line COLO 320HSR)) EUB0000734a CENPE; details: Affinity Phenotypic Cellular Source Knowledge https://pubmed.ncbi.nlm.nih.gov/20167803/
[12] = molecular target: Centromere-associated protein E (Homo sapiens) (UniProt Q02224); assay: Affinity Phenotypic Cellular interaction: (Cell-growth inhibition assays (growth inhibitory effect colon cancer cell line DU4475)) EUB0000734a CENPE; details: DU-4475, Affinity Phenotypic Cellular Source Knowledge https://pubmed.ncbi.nlm.nih.gov/20167803/
[13] = molecular target: Centromere-associated protein E (Homo sapiens) (UniProt Q02224); assay: Affinity Phenotypic Cellular interaction: (Cell-growth inhibition assays (growth inhibitory effect prostate cancer cell line BM1604)) EUB0000734a CENPE; details: BM-1604, Affinity Phenotypic Cellular Source Knowledge https://pubmed.ncbi.nlm.nih.gov/20167803/
[14] = molecular target: Centromere-associated protein E (Homo sapiens) (UniProt Q02224); assay: Affinity Phenotypic Cellular interaction: (Cell-growth inhibition assays (growth inhibitory effect colon cancer cell line A172)) EUB0000734a CENPE; details: A 172, Affinity Phenotypic Cellular Source Knowledge https://pubmed.ncbi.nlm.nih.gov/20167803/
[15] = molecular target: Centromere-associated protein E (Homo sapiens) (UniProt Q02224); assay: Affinity Phenotypic Cellular interaction: (Cell-growth inhibition assays (growth inhibitory effect colon cancer cell line D283Med)) EUB0000734a CENPE; details: D283 Med, Affinity Phenotypic Cellular Source Knowledge https://pubmed.ncbi.nlm.nih.gov/20167803/
[16] = molecular target: Centromere-associated protein E (Homo sapiens) (UniProt Q02224); assay: Affinity Phenotypic Cellular interaction: (Cell-growth inhibition assays (growth inhibitory effect colon cancer cell line SCC-9)) EUB0000734a CENPE; details: Affinity Phenotypic Cellular Source Knowledge https://pubmed.ncbi.nlm.nih.gov/20167803/
[17] = molecular target: Centromere-associated protein E (Homo sapiens) (UniProt Q02224); assay: Affinity Phenotypic Cellular interaction: (Cell-growth inhibition assays (growth inhibitory effect colon cancer cell line RPMI 8226)) EUB0000734a CENPE; details: Affinity Phenotypic Cellular Source Knowledge https://pubmed.ncbi.nlm.nih.gov/20167803/
[18] = molecular target: Centromere-associated protein E (Homo sapiens) (UniProt Q02224); assay: Affinity Phenotypic Cellular interaction: (Cell-growth inhibition assays (growth inhibitory effect colon cancer cell line CGTH-W-1)) EUB0000734a CENPE; details: Affinity Phenotypic Cellular Source Knowledge https://pubmed.ncbi.nlm.nih.gov/20167803/
[19] = molecular target: Centromere-associated protein E (Homo sapiens) (UniProt Q02224); assay: Affinity Phenotypic Cellular interaction: (Cell-growth inhibition assays (growth inhibitory effect colon cancer cell line BT-474)) EUB0000734a CENPE; details: Affinity Phenotypic Cellular Source Knowledge https://pubmed.ncbi.nlm.nih.gov/20167803/
[20] = molecular target: Centromere-associated protein E (Homo sapiens) (UniProt Q02224); assay: Affinity Phenotypic Cellular interaction: (Cell-growth inhibition assays (growth inhibitory effect colon cancer cell line MDA-MB-468)) EUB0000734a CENPE; details: Affinity Phenotypic Cellular Source Knowledge https://pubmed.ncbi.nlm.nih.gov/20167803/
[21] = molecular target: Centromere-associated protein E (Homo sapiens) (UniProt Q02224); assay: Affinity Phenotypic Cellular interaction: (Cell-growth inhibition assays (growth inhibitory effect colon cancer cell line SNU-387)) EUB0000734a CENPE; details: Affinity Phenotypic Cellular Source Knowledge https://pubmed.ncbi.nlm.nih.gov/20167803/
[22] = molecular target: Centromere-associated protein E (Homo sapiens) (UniProt Q02224); assay: Affinity Phenotypic Cellular interaction: (Cell-growth inhibition assays (growth inhibitory effect colon cancer cell line Hep3B)) EUB0000734a CENPE; details: Hep 3B2, Affinity Phenotypic Cellular Source Knowledge https://pubmed.ncbi.nlm.nih.gov/20167803/
[23] = molecular target: Centromere-associated protein E (Homo sapiens) (UniProt Q02224); assay: Affinity Phenotypic Cellular interaction: (Cell-growth inhibition assays (growth inhibitory effect colon cancer cell line KHOS-240S)) EUB0000734a CENPE; details: Affinity Phenotypic Cellular Source Knowledge https://pubmed.ncbi.nlm.nih.gov/20167803/
[24] = molecular target: Centromere-associated protein E (Homo sapiens) (UniProt Q02224); assay: Affinity Phenotypic Cellular interaction: (Cell-growth inhibition assays (growth inhibitory effect colon cancer cell line KATOIII)) EUB0000734a CENPE; details: KATO III, Affinity Phenotypic Cellular Source Knowledge https://pubmed.ncbi.nlm.nih.gov/20167803/
[25] = molecular target: Centromere-associated protein E (Homo sapiens) (UniProt Q02224); assay: Affinity Phenotypic Cellular interaction: (Cell-growth inhibition assays (growth inhibitory effect colon cancer cell line NCI-H508)) EUB0000734a CENPE; details: Affinity Phenotypic Cellular Source Knowledge https://pubmed.ncbi.nlm.nih.gov/20167803/
[26] = molecular target: Centromere-associated protein E (Homo sapiens) (UniProt Q02224); assay: Affinity Phenotypic Cellular interaction: (Cell-growth inhibition assays (growth inhibitory effect colon cancer cell line A-498)) EUB0000734a CENPE; details: A498, Affinity Phenotypic Cellular Source Knowledge https://pubmed.ncbi.nlm.nih.gov/20167803/
[27] = molecular target: Centromere-associated protein E (Homo sapiens) (UniProt Q02224); assay: Affinity Phenotypic Cellular interaction: (Cell-growth inhibition assays (growth inhibitory effect colon cancer cell line FaDu)) EUB0000734a CENPE; details: Affinity Phenotypic Cellular Source Knowledge https://pubmed.ncbi.nlm.nih.gov/20167803/
[28] = molecular target: Centromere-associated protein E (Homo sapiens) (UniProt Q02224); assay: Affinity Phenotypic Cellular interaction: (Cell-growth inhibition assays (growth inhibitory effect colon cancer cell line NCI-H187)) EUB0000734a CENPE; details: Affinity Phenotypic Cellular Source Knowledge https://pubmed.ncbi.nlm.nih.gov/20167803/

GIC50 [1]: 34 nM | GIC50 [2]: 5.02 µM | GIC50 [3]: 52 nM | GIC50 [4]: 29 nM | GIC50 [5]: 54 nM | GIC50 [6]: 21 nM | GIC50 [7]: 174 nM | GIC50 [8]: 93 nM | GIC50 [9]: 31 nM | GIC50 [10]: 25 nM | GIC50 [11]: 153 nM | GIC50 [12]: 147 nM | GIC50 [13]: 40 nM | GIC50 [14]: 27 nM | GIC50 [15]: 28 nM | GIC50 [16]: 24 nM | GIC50 [17]: 27 nM | GIC50 [18]: 30 nM | GIC50 [19]: 110 nM | GIC50 [20]: 25 nM | GIC50 [21]: 32 nM | GIC50 [22]: 164 nM | GIC50 [23]: 37 nM | GIC50 [24]: 79 nM | GIC50 [25]: 32 nM | GIC50 [26]: 81 nM | GIC50 [27]: 32 nM | GIC50 [28]: 68 nM
Compound: CC(C)Oc1ccc(C(=O)N[C@H](CNC(=O)CN(C)C)Cc2ccc(-c3cn4cccc([C@H](C)O)c4n3)cc2)cc1Cl
